Holding throughout (assay): co-IP
One experiment has as its target T1, V5-tagged RPN1 (human) (UniProt P04843).
T1 sequence: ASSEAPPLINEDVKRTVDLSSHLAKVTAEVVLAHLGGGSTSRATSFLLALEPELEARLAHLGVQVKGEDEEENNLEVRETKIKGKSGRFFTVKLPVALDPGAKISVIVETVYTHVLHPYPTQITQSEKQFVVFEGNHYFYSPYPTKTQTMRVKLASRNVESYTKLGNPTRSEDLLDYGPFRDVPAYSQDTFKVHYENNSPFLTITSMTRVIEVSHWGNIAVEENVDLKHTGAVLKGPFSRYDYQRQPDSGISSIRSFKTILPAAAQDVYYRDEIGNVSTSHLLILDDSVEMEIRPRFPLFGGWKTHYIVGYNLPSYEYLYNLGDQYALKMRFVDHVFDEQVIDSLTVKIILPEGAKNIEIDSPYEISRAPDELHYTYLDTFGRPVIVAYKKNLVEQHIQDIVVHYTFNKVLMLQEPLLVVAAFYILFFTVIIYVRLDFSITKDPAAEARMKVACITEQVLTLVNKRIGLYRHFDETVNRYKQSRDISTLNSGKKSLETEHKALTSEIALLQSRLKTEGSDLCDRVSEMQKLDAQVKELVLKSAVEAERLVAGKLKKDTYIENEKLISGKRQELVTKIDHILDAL

A further experiment has as its target T2, V5-tagged STT3A (human) (UniProt P46977).
T2 sequence: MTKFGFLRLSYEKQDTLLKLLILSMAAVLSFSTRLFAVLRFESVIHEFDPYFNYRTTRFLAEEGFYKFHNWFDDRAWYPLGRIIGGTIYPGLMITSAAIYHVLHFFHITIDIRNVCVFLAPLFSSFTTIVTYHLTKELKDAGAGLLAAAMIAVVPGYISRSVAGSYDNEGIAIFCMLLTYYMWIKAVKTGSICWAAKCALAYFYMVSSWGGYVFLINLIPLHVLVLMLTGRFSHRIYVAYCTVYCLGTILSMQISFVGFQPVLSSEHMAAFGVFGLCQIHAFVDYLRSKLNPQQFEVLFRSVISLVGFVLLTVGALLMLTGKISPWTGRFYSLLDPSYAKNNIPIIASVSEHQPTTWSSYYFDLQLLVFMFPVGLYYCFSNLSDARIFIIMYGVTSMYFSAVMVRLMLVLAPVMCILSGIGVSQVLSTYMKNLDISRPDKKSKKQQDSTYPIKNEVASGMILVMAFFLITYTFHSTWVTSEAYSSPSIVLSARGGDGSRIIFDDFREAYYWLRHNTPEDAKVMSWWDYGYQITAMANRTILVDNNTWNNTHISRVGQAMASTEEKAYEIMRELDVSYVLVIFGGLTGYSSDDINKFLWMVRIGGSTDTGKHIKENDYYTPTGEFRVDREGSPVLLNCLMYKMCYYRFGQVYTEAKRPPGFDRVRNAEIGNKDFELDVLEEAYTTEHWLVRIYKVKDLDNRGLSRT

A further experiment concerns the target T3, V5-tagged DDOST (human) (UniProt P39656).
T3 sequence: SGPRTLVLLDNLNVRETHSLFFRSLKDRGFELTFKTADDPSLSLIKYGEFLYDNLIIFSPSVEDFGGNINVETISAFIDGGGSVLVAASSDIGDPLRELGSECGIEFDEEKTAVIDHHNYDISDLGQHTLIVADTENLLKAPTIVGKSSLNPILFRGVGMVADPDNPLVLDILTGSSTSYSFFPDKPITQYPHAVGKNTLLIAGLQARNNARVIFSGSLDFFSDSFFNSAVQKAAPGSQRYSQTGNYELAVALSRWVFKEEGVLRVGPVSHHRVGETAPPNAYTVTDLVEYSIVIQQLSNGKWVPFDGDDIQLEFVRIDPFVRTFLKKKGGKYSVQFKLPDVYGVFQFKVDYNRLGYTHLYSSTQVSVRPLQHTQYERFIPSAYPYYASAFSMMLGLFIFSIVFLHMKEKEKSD

The target of the next experiment is T4, V5-tagged CPSF3 (human) (UniProt Q9UKF6).
T4 sequence: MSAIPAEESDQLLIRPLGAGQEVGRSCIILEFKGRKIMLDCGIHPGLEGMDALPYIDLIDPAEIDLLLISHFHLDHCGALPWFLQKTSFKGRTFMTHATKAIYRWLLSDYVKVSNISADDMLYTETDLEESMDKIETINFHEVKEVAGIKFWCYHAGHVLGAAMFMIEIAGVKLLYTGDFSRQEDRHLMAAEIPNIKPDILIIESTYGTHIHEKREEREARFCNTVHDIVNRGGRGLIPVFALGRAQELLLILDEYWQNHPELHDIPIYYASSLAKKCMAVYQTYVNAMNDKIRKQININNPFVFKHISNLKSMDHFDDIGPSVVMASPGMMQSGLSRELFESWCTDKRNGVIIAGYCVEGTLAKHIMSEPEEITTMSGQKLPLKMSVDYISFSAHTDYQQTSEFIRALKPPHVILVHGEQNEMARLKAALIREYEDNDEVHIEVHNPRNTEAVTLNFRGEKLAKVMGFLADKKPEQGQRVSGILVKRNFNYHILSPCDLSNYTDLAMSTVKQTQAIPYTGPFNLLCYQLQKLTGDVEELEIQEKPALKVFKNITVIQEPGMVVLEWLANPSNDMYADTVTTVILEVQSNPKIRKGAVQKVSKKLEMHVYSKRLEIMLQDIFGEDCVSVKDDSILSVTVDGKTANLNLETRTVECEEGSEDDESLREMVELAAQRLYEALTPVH

In another experiment the target is T5, V5-tagged EFTUD2 (human) (UniProt Q15029).
T5 sequence: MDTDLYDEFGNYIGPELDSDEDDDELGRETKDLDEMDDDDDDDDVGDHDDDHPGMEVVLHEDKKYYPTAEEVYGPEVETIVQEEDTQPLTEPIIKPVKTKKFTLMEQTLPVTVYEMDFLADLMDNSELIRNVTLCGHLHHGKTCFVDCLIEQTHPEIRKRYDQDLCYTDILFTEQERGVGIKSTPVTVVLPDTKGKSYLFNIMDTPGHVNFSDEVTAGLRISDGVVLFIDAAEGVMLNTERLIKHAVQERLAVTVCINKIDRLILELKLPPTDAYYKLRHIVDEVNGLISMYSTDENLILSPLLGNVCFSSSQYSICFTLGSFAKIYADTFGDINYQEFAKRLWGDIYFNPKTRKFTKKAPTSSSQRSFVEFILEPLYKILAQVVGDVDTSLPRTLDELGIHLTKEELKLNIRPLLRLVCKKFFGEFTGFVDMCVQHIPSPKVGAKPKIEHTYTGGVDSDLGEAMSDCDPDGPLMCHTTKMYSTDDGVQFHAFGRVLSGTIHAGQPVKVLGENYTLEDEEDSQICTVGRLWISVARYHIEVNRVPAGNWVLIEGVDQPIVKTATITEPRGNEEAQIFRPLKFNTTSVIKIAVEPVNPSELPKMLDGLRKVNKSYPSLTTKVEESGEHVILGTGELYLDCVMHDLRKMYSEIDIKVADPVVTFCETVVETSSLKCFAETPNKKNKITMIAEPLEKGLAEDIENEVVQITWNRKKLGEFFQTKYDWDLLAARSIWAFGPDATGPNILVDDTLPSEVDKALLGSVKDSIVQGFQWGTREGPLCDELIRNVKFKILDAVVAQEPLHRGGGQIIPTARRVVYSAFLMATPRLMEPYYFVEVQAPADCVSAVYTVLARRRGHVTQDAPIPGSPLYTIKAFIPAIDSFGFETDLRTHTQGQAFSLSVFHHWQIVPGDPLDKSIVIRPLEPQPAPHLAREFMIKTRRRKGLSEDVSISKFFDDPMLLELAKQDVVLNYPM

Experiment [1] concerns the target FLAG-tagged DENV NS5 (co-IP, 293T) (dengue virus serotype 2 (EDEN2)).
In experiment [2] the target is FLAG-tagged DENV NS3 (co-IP, 293T) (dengue virus serotype 2 (EDEN2)).
For experiment [3], the target named is FLAG-tagged DENV NS1 (co-IP, 293T) (dengue virus serotype 2 (EDEN2)).

No constants are given. Whether binding was seen depends on the method and setting. Binding seen in cells or lysates may run through a third protein. For part of these data: A result given as binding can be weak or reduced; the word gives no strength. Where a sequence is shown, tags or fusion partners need not be part of it.

For the molecule “FLAG-tagged DENV2 NS4A (co-IP, 293T) (dengue virus serotype 2 (EDEN2))”, the binding result with V5-tagged RPN1 (human), in the experiment with V5-tagged STT3A (human) and with V5-tagged DDOST (human) was “binds” throughout.

“FLAG-tagged DENV2 NS4B (co-IP, 293T) (dengue virus serotype 2 (EDEN2))”: the binding entry with V5-tagged RPN1 (human), in the experiment with V5-tagged STT3A (human) and with V5-tagged DDOST (human) was “binds” in each case.

As to “FLAG-tagged DENV NS1 (co-IP, 293T) (dengue virus serotype 2 (EDEN2))”, the binding entry with V5-tagged CPSF3 (human) and with V5-tagged EFTUD2 (human) was “no binding” in each case.

For the molecule “FLAG-tagged DENV NS3 (co-IP, 293T) (dengue virus serotype 2 (EDEN2))”, the binding entry in the experiment with V5-tagged CPSF3 (human) and in the experiment with V5-tagged EFTUD2 (human) was “binds” throughout.

As to “FLAG-tagged DENV NS5 (co-IP, 293T) (dengue virus serotype 2 (EDEN2))”, the binding result with V5-tagged CPSF3 (human) and with V5-tagged EFTUD2 (human) was “binds” in each case.

B1: V5-tagged CCT2 (protein, UniProt P78371 1-535)
chain: MASLSLAPVNIFKAGADEERAETARLTSFIGAIAIGDLVKSTLGPKGMDKILLSSGRDASLMVTNDGATILKNIGVDNPAAKVLVDMSRVQDDEVGDGTTSVTVLAAELLREAESLIAKKIHPQTIIAGWREATKAAREALLSSAVDHGSDEVKFRQDLMNIAGTTLSSKLLTHHKDHFTKLAVEAVLRLKGSGNLEAIHIIKKLGGSLADSYLDEGFLLDKKIGVNQPKRIENAKILIANTGMDTDKIKIFGSRVRVDSTAKVAEIEHAEKEKMKEKVERILKHGINCFINRQLIYNYPEQLFGAAGVMAIEHADFAGVERLALVTGGEIASTFDHPELVKLGSCKLIEEVMIGEDKLIHFSGVALGEACTIVLRGATQQILDEAERSLHDALCVLAQTVKDSRTVYGGGCSEMLMAHAVTQLANRTPGKEAVAMESYAKALRMLPTIIADNAGYDSADLVAQLRAAHSEGNTTAGLDMREGTIGDMAILGITESFQVKRQVLLSAAEAAEVILRVDNIIKAAPRKRVPDHHPC
For B1, the binding result is given as “no binding” in experiment [1], “no binding” in experiment [2] and “binds” in experiment [3].

The record behind these values is paper doi:10.1101/2025.06.20.659860.
